Measured values from PMC4464284.
No constants are given. Whether binding was seen depends on the method and setting. In cells and extracts the contact can be indirect. Some binding calls cover weakened binding; strength is not graded here.

Sequences of proteins named here, by UniProt entry; tags and fusion partners are left off.
UniProt Q04207: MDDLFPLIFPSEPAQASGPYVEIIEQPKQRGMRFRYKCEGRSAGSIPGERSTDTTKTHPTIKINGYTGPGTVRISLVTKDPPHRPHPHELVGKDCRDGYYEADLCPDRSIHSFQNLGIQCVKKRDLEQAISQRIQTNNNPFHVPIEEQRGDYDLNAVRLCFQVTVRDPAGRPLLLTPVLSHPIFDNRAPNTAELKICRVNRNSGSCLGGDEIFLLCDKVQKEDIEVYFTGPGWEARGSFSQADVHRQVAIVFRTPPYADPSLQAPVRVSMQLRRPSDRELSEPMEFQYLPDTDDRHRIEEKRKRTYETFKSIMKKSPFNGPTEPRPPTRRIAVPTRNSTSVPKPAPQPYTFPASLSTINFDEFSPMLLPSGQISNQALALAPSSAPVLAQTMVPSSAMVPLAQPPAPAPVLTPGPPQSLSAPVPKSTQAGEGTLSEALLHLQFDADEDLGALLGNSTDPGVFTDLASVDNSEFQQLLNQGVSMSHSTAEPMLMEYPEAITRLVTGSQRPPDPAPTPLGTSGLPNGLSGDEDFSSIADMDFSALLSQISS

Molecular target: T1, vitamin D receptor (mouse (endogenous in placenta)) (UniProt P48281)
T1 sequence: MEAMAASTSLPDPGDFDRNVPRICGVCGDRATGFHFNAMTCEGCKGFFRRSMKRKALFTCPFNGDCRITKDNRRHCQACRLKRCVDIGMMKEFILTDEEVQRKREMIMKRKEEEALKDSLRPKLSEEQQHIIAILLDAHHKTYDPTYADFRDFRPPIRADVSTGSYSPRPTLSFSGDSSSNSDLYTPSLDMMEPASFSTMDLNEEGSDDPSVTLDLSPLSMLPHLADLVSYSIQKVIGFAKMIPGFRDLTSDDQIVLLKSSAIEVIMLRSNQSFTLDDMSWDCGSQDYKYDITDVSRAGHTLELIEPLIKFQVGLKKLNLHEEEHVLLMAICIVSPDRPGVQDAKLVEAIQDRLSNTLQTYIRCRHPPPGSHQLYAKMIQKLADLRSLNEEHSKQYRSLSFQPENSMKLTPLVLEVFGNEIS
Assay: co-IP; placental cytosol proteins (300 μg tissue lysate; 0.6% Nonidet P-40, 0.5% sodium deoxycholate, 150 mM NaCl, 50 mM Tris-HCl pH 7.5) precleared with protein A/G-agarose, incubated with agarose-conjugated VDR antibody at 4 °C overnight, washed with cold RIPA buffer, immunoblot for NF-κB p65; pregnant mice treated with saline, VitD3, LPS or VitD3 + LPS, placentas collected 2 h after LPS

binding: binds
Substance: nuclear factor kappa B p65 subunit (from UniProt Q04207 1-549)
